PubChem BioAssay AID1259297 – Sanger Institute | 2017

Screen: 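siRNA screen across the kinome seeking drug partners in cells of colorectal cancer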 (primary screen)
System: human RCM1 colorectal cancer cell line
Reagents: siRNA pool against human genes
Conditions: separate arms: DMSO vehicle, or one anchor drug at a mild dose: BYL719 1 µM, cetuximab 5 µg/ml, trametinib 10 nM
Measurement: 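Replicate-mean well viability as a share of non-targeting pool control, a robust z-score without drug, and synergy scores for BYL719, cetuximab and trametinib arms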
Scale: viability z-score, knock-down alone: higher = more viable cells than non-targeting controls; viability, knock-down alone (DMSO): higher = more viable cells; synergy score with trametinib: higher = stronger combined killing with trametinib; synergy score with BYL719: higher = stronger combined killing with BYL719; synergy score with cetuximab: higher = stronger combined killing with cetuximab
Hit rule: 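Essential when the viability robust z-score for knock-down alone is below -3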
Meaning of the calls: active = essential when knocked down alone; inactive = no clear loss of viability alone
This is one part, drawn at random, of 794 reagents. Over the whole deposit, 13 (1.6%) were called active. 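Calls reflect knock-down without drug only; drug synergy is judged separately, with scores above 0.15 counted as synergy.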 A number with no mark means an inactive call. No viability above 1 is reported: the scale is capped. The record does not give: the amount of reagent, the time to read-out.

gene knocked down | viability z-score, knock-down alone | viability, knock-down alone (DMSO) (fraction of control) | synergy score with trametinib | synergy score with BYL719 | synergy score with cetuximab
MAGI2 | 0.748 | 0.986 | -0.0174 | 0.0269 | -0.0811
STAG2 | 0.389 | 0.953 | -0.0689 | -0.117 | -0.16
HSPB8 | -0.136 | 0.904 | 0.102 | -0.162 | -0.203
NME2 | 0.9 | 1 | 0.00473 | -0.0728 | -0.118
NRK | -0.106 | 0.907 | 0.129 | -0.0062 | 0.0313
AK7 | 0.58 | 0.97 | -0.131 | -0.1 | -0.144
DGKA | -0.00874 | 0.916 | 0.129 | 0.122 | 0.172
PRKDC | -0.431 | 0.876 | -0.009 | -0.0275 | -0.0065
CAD | 0.9 | 1 | -0.148 | -0.0728 | -0.118
CAMK2B | 0.9 | 1 | 0.0962 | -0.0176 | -0.0137
PFKFB2 | 0.394 | 0.953 | 0.025 | -0.107 | -0.16
DYRK4 | 0.000109 | 0.916 | -0.112 | -0.0486 | -0.0222
CIB2 | 0.248 | 0.939 | -0.147 | -0.00942 | -0.0317
TEX14 | 0.9 | 1 | -0.0534 | -0.0728 | -0.118
RPS6KB2 | 0.178 | 0.933 | -0.123 | -0.0987 | -0.177
STK24 | 0.9 | 1 | 0.0204 | -0.0702 | -0.0566
PI4K2B | -1.88 | 0.742 | 0.0259 | 0.0447 | 0.0198
PIM3 | 0.9 | 1 | -0.00791 | -0.0728 | -0.118
CLK1 | 0.361 | 0.95 | -0.0145 | -0.119 | -0.162
JAK3 | 0.71 | 0.982 | 0.123 | -0.0678 | -0.129
PAK4 | 0.29 | 0.943 | -0.00886 | -0.0273 | -0.123
ARID1A | 0.9 | 1 | 0.0868 | 0.0186 | -0.0428
MAP2K6 | 0.686 | 0.98 | -0.00757 | 0.0198 | -0.0109
CTNNB1 | 0.779 | 0.989 | -0.23 | 0.0297 | -0.128
AMER1 | 0.114 | 0.927 | -0.00766 | -0.0328 | -0.183
ACVRL1 | 0.9 | 1 | -0.115 | -0.0728 | -0.118
EFNA5 | 0.671 | 0.979 | -0.037 | -0.00779 | -0.137
CDKN2C | 0.9 | 1 | 0.0636 | -0.0142 | 0.036
CEP290 | 0.151 | 0.93 | -0.0858 | -0.0755 | -0.139
FOXP1 | -0.623 | 0.859 | 0.0684 | 0.039 | -0.109
NTRK2 | 0.374 | 0.951 | -0.101 | 0.00942 | -0.126
CDKL2 | -0.333 | 0.886 | -0.0486 | -0.102 | -0.183
TGFBR2 | -0.722 | 0.849 | 0.0679 | -0.053 | -0.0138
MAPK13 | 0.177 | 0.933 | 0.112 | -0.0559 | -0.0259
IKBKE | 0.228 | 0.938 | 0.0573 | -0.121 | 0.0033
TWF2 | 0.9 | 1 | -0.0538 | 0.0472 | -0.036
EPHA6 | -1.94 | 0.736 | 0.0245 | 0.0482 | 0.0109
ASPM | 0.9 | 1 | -0.00966 | -0.0728 | -0.118
PIK3C3 | 0.549 | 0.967 | -0.0659 | -0.0156 | -0.139
PRKCQ | 0.738 | 0.985 | 0.063 | -0.0868 | -0.111
AURKC | -0.24 | 0.894 | 0.0183 | -0.106 | -0.12
NME7 | 0.808 | 0.991 | -0.0836 | -0.0776 | -0.126
SRPK1 | 0.0788 | 0.924 | 0.126 | 0.0268 | 0.0595
SOX9 | -0.129 | 0.904 | 0.00349 | 0.0101 | -0.0101
MYO3A | 0.125 | 0.928 | 0.129 | 0.143 | 0.056
MAPK6 | -1.02 | 0.822 | 0.00727 | -0.105 | -0.0156
PANK4 | -2.28 | 0.705 | 0.00145 | -0.0224 | 0.0228
TTBK2 | 0.0435 | 0.92 | 0.0864 | -0.00695 | -0.161
RSKR | 0.0973 | 0.925 | -0.0625 | -0.103 | -0.0328
MAP2K7 | -0.326 | 0.886 | 0.0501 | -0.178 | -0.198
PDK4 | 0.786 | 0.989 | 0.0701 | 0.00638 | -0.066
PSKH1 | 0.9 | 1 | -0.00859 | -0.0423 | -0.118
BPTF | -1.3 | 0.796 | 0.0732 | -0.0191 | -0.0756
STYK1 | -1.01 | 0.823 | 0.0812 | -0.081 | -0.0511
ACVR1B | 0.9 | 1 | 0.0484 | 0.0256 | -0.0166
STK25 | 0.9 | 1 | 0.0849 | 0.0375 | -0.0682
KDR | -0.376 | 0.882 | -0.0146 | -0.00571 | 0.0372
WNK3 | -0.526 | 0.868 | 0.0383 | -0.0719 | -0.235
LMBR1 | 0.704 | 0.982 | 0.0748 | -0.006 | -0.078
EPHA10 | 0.168 | 0.932 | 0.118 | -0.0494 | 0.129
STK33 | -1.23 | 0.803 | 0.126 | -0.0601 | -0.0825
STK38L | -0.877 | 0.835 | 0.0696 | -0.0638 | 0.0695
PKDCC | 0.327 | 0.947 | 0.0826 | -0.0593 | -0.148
